Results on one molecule are retold here after publication PMC12247140.

The experiment has as its target T1, musclin (UniProt P61364).
T1 sequence: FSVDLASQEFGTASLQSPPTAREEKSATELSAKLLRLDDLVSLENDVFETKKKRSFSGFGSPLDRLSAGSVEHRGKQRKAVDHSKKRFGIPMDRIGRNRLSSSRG
Put plainly: co-IP; lysates of primary mouse PASMCs, untreated or treated with musclin (50 nM, 24 h); IP and input lysates blotted with antibodies against NPR3 and TFR1.

Results are given in words; binding and its absence hold for the method and conditions named. In cells and extracts the contact can be indirect. Some binding calls cover weakened binding; strength is not graded here.

B1: natriuretic peptide receptor 3 (receptor, UniProt P70180 41-536)
chain: EALAAQKIEVLVLLPRDDSYLFSLARVRPAIEYALRSVEGNGTGRKLLPPGTRFQVAYEDSDCGNRALFSLVDRVAAARGAKPDLILGPVCEYAAAPVARLASHWDLPMLSAGALAAGFQHKDTEYSHLTRVAPAYAKMGEMMLALFRHHHWSRAALVYSDDKLERNCYFTLEGVHEVFQEEGLHTSAYNFDETKDLDLDDIVRYIQGSERVVIMCASGDTIRRIMLAVHRHGMTSGDYAFFNIELFNSSSYGDGSWRRGDKHDSEAKQAYSSLQTVTLLRTVKPEFEKFSMEVKSSVEKQGLNEEDYVNMFVEGFHDAILLYVLALHEVLRAGYSKKDGGKIIQQTWNRTFEGIAGQVSIDANGDRYGDFSVVAMTDTEAGTQEVIGDYFGKEGRFQMRSNVKYPWGPLKLRLDETRIVEHTNSSPCKSSGGLEESAVTGIVVGALLGAGLLMAFYFFRKKYRITIERRNQQEESNIGKHRELREDSIRSHFSVA
For the molecule B1, the binding entry is listed as “binds”.
